Not every detail of the peptide structures is certain; ends, links or a residue may be inferred. *1 amine or outer side, *2 acyl side, *3 side chain or, on linkers, in order; H or OH if unused. Where a SMILES comes first, the peptide text is derived from it. Bridges are numbered along the chain shown (N, C = ends). [ ]: non-standard residue; d: D form. The star is where a group is joined. NH(CH2CH2O)2(CH2)6Cl = ClCCCCCCOCCOCCN*; oXylylene = c1ccc(C[*:2])c(C[*:1])c1; Suc = O=C(CCC(=O)[*:2])[*:1]
System: HaLo-GFP-Mito+mCherry-DHFR HeLa cells
Assay: Chloroalkane Penetration Assay (CAPA)
Type: in vitro ADME
Conditions: 10 μM; representative image
Text: FIGS. 19A-19C. Chloroalkane Penetration Assay quantitates relative cytosolic access of exogenously added DD5-o. 19A. Schematic showing the experimental procedure of CAPA, which uses a HaloEnzyme-GFP-expressing HeLa cell line. […] For CAPA, cells are pre-treated with vehicle or peptide, washed, and chased with HTag-TAMRA. Cells treated with cell-penetrant molecules have had their Haloenzyme blocked, thus preventing the HTag-TAMRA from covalently labeling the cells. 19B. Representative images of cells after CAPA, showing Haloenzyme-GFP fluorescence, Halotag-TAMRA fluorescence and the overlay of the two. […] 19C. […]
The Chloroalkane Penetration Assay is described in detail in U.S. Provisional Application No. 62/424,955, filed Nov. […] Following this incubation period, the amount of unreacted Haloenzyme was measured by chasing with a Haloligand-bearing dye (here, Htag-TAMRA). The relative amount of red cellular fluorescence after this chase was then quantified by flow cytometry. […] We evaluated CAPA with HTag-cTMP, a small molecule previously used as a tool for cytosolic protein localization.^71 As quantitated by flow cytometry, we observed inhibition of the HTag-TAMRA signal when cells were pre-incubated with HTag-cTMP, and this inhibition was dose-dependent with respect to amount of the HTag-cTMP used in the pre-incubation step. […]

Structure (SMILES): CC[C@H](C)[C@H](NC(=O)[C@H](Cc1c[nH]cn1)NC(=O)[C@H](Cc1ccccc1)NC(=O)[C@H]1CSCc2ccccc2CSC[C@@H](NC(=O)[C@@H](NC(=O)CCC(=O)NCCOCCOCCCCCCCl)C(C)C)C(=O)N[C@@H](CC(N)=O)C(=O)N[C@@H](C)C(=O)N1)C(=O)N[C@@H](Cc1c[nH]c2ccccc12)C(=O)N[C@@H](Cc1c[nH]cn1)C(N)=O [HTag-DD5-o, (HTag)-VcNAcFHIWH] ({NH(CH2CH2O)2(CH2)6Cl-Suc}-V[dC]NA[dC]FHIWH-NH2; linker 2-5 via oXylylene)
- inhibition of the Halotag-TAMRA signal: roughly 50%
